From US12491217B2, “Compositions and methods for promoting healthy neural development in an unborn baby” (The Regents of the University of California, priority 2019, dated 2025)

Assay: Metabolomics of fetal brain at E14.5
Type: in vivo, C57Bl/6J mice
[1] = metabolite level in E14.5 fetal brain, ANOVA contrast ABX/SPF
[2] = metabolite level in E14.5 fetal brain, ANOVA contrast GF/ABX
[3] = metabolite level in E14.5 fetal brain, ANOVA contrast GF/SPF
[4] = metabolite level in E14.5 fetal brain, ANOVA contrast GF/Sp
[5] = metabolite level in E14.5 fetal brain, ANOVA contrast Sp/ABX
[6] = metabolite level in E14.5 fetal brain, ANOVA contrast Sp/SPF
[7] = E14.5 fetal brain metabolite level, ANOVA contrast ABX vs SPF
[8] = E14.5 fetal brain metabolite level, ANOVA contrast GF vs ABX
[9] = E14.5 fetal brain metabolite level, ANOVA contrast GF vs SPF
[10] = E14.5 fetal brain metabolite level, ANOVA contrast GF vs Sp
[11] = E14.5 fetal brain metabolite level, ANOVA contrast Sp vs ABX
[12] = E14.5 fetal brain metabolite level, ANOVA contrast Sp vs SPF

Compound: CCCCCCCC(=O)O [compound 1203]
- fold of change ABX/SPF [1]: 1.06
- fold of change GF/ABX [2]: 0.97
- fold of change GF/SPF [3]: 1.03
- fold of change GF/Sp [4]: 1.22
- fold of change Sp/ABX [5]: 0.80
- fold of change Sp/SPF [6]: 0.84

Compound: CCCCCCCCC(=O)O [compound 1204]
- fold of change ABX/SPF [1]: 1.41
- fold of change GF/ABX [2]: 0.99
- fold of change GF/SPF [3]: 1.40
- fold of change GF/Sp [4]: 1.24
- fold of change Sp/ABX [5]: 0.80
- fold of change Sp/SPF [6]: 1.13

Compound: CCCCCCCCCC(=O)O [compound 1205]
- fold of change ABX/SPF [1]: 0.96
- fold of change GF/ABX [2]: 1.17
- fold of change GF/SPF [3]: 1.13
- fold of change GF/Sp [4]: 1.23
- fold of change Sp/ABX [5]: 0.96
- fold of change Sp/SPF [6]: 0.92

Compound: CCCCCCCCCCCCCCCC(=O)O [compound 1217]
- fold of change ABX/SPF [1]: 0.95
- fold of change GF/ABX [2]: 0.81
- fold of change GF/SPF [3]: 0.77
- fold of change GF/Sp [4]: 1.02
- fold of change Sp/ABX [5]: 0.79
- fold of change Sp/SPF [6]: 0.75

Compound: CCCCCC/C=C\CCCCCCCC(=O)O [compound 1218]
- fold of change ABX/SPF [1]: 0.86
- fold of change GF/ABX [2]: 0.73
- fold of change GF/SPF [3]: 0.62
- fold of change GF/Sp [4]: 0.92
- fold of change Sp/ABX [5]: 0.79
- fold of change Sp/SPF [6]: 0.68

Compound: CCCCCCCCCCCCCCCCCC(=O)O [compound 1223]
- fold of change ABX/SPF [1]: 0.96
- fold of change GF/ABX [2]: 0.87
- fold of change GF/SPF [3]: 0.84
- fold of change GF/Sp [4]: 1.08
- fold of change Sp/ABX [5]: 0.81
- fold of change Sp/SPF [6]: 0.78

Compound: CCCCCCCCCCCCCCCCCCCC(=O)O [compound 1236]
- fold of change ABX/SPF [1]: 0.97
- fold of change GF/ABX [2]: 0.82
- fold of change GF/SPF [3]: 0.80
- fold of change GF/Sp [4]: 1.22
- fold of change Sp/ABX [5]: 0.68
- fold of change Sp/SPF [6]: 0.65

Compound: CCCCCCCC/C=C\CCCCCCCCCC(=O)O [compound 1239]
- fold of change ABX/SPF [7]: 0.84
- fold of change GF/ABX [8]: 0.80
- fold of change GF/SPF [9]: 0.67
- fold of change GF/Sp [10]: 1.02
- fold of change Sp/ABX [11]: 0.79
- fold of change Sp/SPF [12]: 0.66

Compound: CCCCCCCC/C=C\CCCCCCCCCCCC(=O)O [compound 1244]
- fold of change ABX/SPF [7]: 1.17
- fold of change GF/ABX [8]: 0.61
- fold of change GF/SPF [9]: 0.72
- fold of change GF/Sp [10]: 1.16
- fold of change Sp/ABX [11]: 0.53
- fold of change Sp/SPF [12]: 0.62

Compound: CCCCCCCC/C=C\CCCCCCCCCCCCCC(=O)O [compound 1247]
- fold of change ABX/SPF [7]: 0.85
- fold of change GF/ABX [8]: 0.62
- fold of change GF/SPF [9]: 0.52
- fold of change GF/Sp [10]: 0.87
- fold of change Sp/ABX [11]: 0.71
- fold of change Sp/SPF [12]: 0.60

Compound: CCCCC/C=C\C/C=C\CCCCCC(=O)O [compound 1253]
- fold of change ABX/SPF [7]: 0.86
- fold of change GF/ABX [8]: 0.96
- fold of change GF/SPF [9]: 0.82
- fold of change GF/Sp [10]: 1.09
- fold of change Sp/ABX [11]: 0.88
- fold of change Sp/SPF [12]: 0.76

Compound: CC/C=C\C/C=C\C/C=C\C/C=C\C/C=C\CCCC(=O)O [compound 1258]
- fold of change ABX/SPF [7]: 0.99
- fold of change GF/ABX [8]: 0.55
- fold of change GF/SPF [9]: 0.54
- fold of change GF/Sp [10]: 0.89
- fold of change Sp/ABX [11]: 0.61
- fold of change Sp/SPF [12]: 0.60

Compound: CC/C=C\C/C=C\C/C=C\C/C=C\C/C=C\CCCCCC(=O)O [compound 1259]
- fold of change ABX/SPF [7]: 0.98
- fold of change GF/ABX [8]: 0.43
- fold of change GF/SPF [9]: 0.42
- fold of change GF/Sp [10]: 0.89
- fold of change Sp/ABX [11]: 0.49
- fold of change Sp/SPF [12]: 0.47

Compound: CC/C=C\C/C=C\C/C=C\C/C=C\C/C=C\C/C=C\CCC(=O)O [compound 1260]
- fold of change ABX/SPF [7]: 0.77
- fold of change GF/ABX [8]: 0.48
- fold of change GF/SPF [9]: 0.37
- fold of change GF/Sp [10]: 0.87
- fold of change Sp/ABX [11]: 0.56
- fold of change Sp/SPF [12]: 0.43

Compound: CC/C=C\C/C=C\C/C=C\C/C=C\C/C=C\C/C=C\CCCCC(=O)O [compound 1264]
- fold of change ABX/SPF [7]: 1.03
- fold of change GF/ABX [8]: 0.31
- fold of change GF/SPF [9]: 0.32
- fold of change GF/Sp [10]: 0.83
- fold of change Sp/ABX [11]: 0.37
- fold of change Sp/SPF [12]: 0.38

Compound: CCCCC/C=C\C/C=C\CCCCCCCC(=O)O [compound 1265]
- fold of change ABX/SPF [7]: 0.89
- fold of change GF/ABX [8]: 0.61
- fold of change GF/SPF [9]: 0.54
- fold of change GF/Sp [10]: 1.11
- fold of change Sp/ABX [11]: 0.55
- fold of change Sp/SPF [12]: 0.49

Compound: CCCCC/C=C\C/C=C\C/C=C\C/C=C\CCCC(=O)O [compound 1270]
- fold of change ABX/SPF [7]: 0.77
- fold of change GF/ABX [8]: 0.54
- fold of change GF/SPF [9]: 0.42
- fold of change GF/Sp [10]: 0.93
- fold of change Sp/ABX [11]: 0.58
- fold of change Sp/SPF [12]: 0.45

Compound: CCCCC/C=C\C/C=C\C/C=C\C/C=C\CCCCCC(=O)O [compound 1271]
- fold of change ABX/SPF [7]: 0.87
- fold of change GF/ABX [8]: 0.65
- fold of change GF/SPF [9]: 0.57
- fold of change GF/Sp [10]: 0.93
- fold of change Sp/ABX [11]: 0.71
- fold of change Sp/SPF [12]: 0.61

Compound: CCCCC/C=C\C/C=C\C/C=C\C/C=C\C/C=C\CCC(=O)O [compound 1272]
- fold of change ABX/SPF [7]: 0.78
- fold of change GF/ABX [8]: 0.63
- fold of change GF/SPF [9]: 0.49
- fold of change GF/Sp [10]: 0.96
- fold of change Sp/ABX [11]: 0.66
- fold of change Sp/SPF [12]: 0.51

Compound: CCCCC/C=C\C/C=C\CCCCCCCCCCCC(=O)O [compound 1273]
- fold of change ABX/SPF [7]: 0.83
- fold of change GF/ABX [8]: 0.79
- fold of change GF/SPF [9]: 0.65
- fold of change GF/Sp [10]: 1.25
- fold of change Sp/ABX [11]: 0.63
- fold of change Sp/SPF [12]: 0.52

Compound: CCCCC/C=C\C/C=C\CCCCCCCCCC(=O)O [compound 1274]
- fold of change ABX/SPF [7]: 0.88
- fold of change GF/ABX [8]: 0.60
- fold of change GF/SPF [9]: 0.53
- fold of change GF/Sp [10]: 1.04
- fold of change Sp/ABX [11]: 0.58
- fold of change Sp/SPF [12]: 0.51

Compound: CCCCCCCC/C=C\C/C=C\C/C=C\CCCC(=O)O [compound 1276]
- fold of change ABX/SPF [7]: 1.09
- fold of change GF/ABX [8]: 0.45
- fold of change GF/SPF [9]: 0.49
- fold of change GF/Sp [10]: 0.95
- fold of change Sp/ABX [11]: 0.47
- fold of change Sp/SPF [12]: 0.51

Compound: CCCCC/C=C\C/C=C\C/C=C\CCCCCCCCC(=O)O [compound 1277]
- fold of change ABX/SPF [7]: 0.94
- fold of change GF/ABX [8]: 0.60
- fold of change GF/SPF [9]: 0.57
- fold of change GF/Sp [10]: 1.14
- fold of change Sp/ABX [11]: 0.52
- fold of change Sp/SPF [12]: 0.50

Compound: O=C(O)CCCC(=O)O [compound 1351]
- fold of change ABX/SPF [7]: 0.68
- fold of change GF/ABX [8]: 1.20
- fold of change GF/SPF [9]: 0.81
- fold of change GF/Sp [10]: 0.83
- fold of change Sp/ABX [11]: 1.45
- fold of change Sp/SPF [12]: 0.98

Compound: O=C(O)CCC(O)C(=O)O (stereo not drawn) [compound 1355]
- fold of change ABX/SPF [7]: 0.77
- fold of change GF/ABX [8]: 1.03
- fold of change GF/SPF [9]: 0.79
- fold of change GF/Sp [10]: 1.01
- fold of change Sp/ABX [11]: 1.02
- fold of change Sp/SPF [12]: 0.79

Compound: O=C(O)CCCC(O)C(=O)O (stereo not drawn) [compound 1359]
- fold of change ABX/SPF [7]: 0.72
- fold of change GF/ABX [8]: 0.98
- fold of change GF/SPF [9]: 0.70
- fold of change GF/Sp [10]: 0.95
- fold of change Sp/ABX [11]: 1.03
- fold of change Sp/SPF [12]: 0.74

Compound: O=C(O)CCC(O)CC(=O)O (stereo not drawn) [compound 1360]
- fold of change ABX/SPF [7]: 0.80
- fold of change GF/ABX [8]: 1.29
- fold of change GF/SPF [9]: 1.03
- fold of change GF/Sp [10]: 1.17
- fold of change Sp/ABX [11]: 1.10
- fold of change Sp/SPF [12]: 0.88
